Consider one substance from PMC8973876.

Amino acid sequences for entries named in this document (tags omitted). A change or cut given only in a name is not applied to a line headed by its entry. Residues count along the entry.
UniProt Q80WC1: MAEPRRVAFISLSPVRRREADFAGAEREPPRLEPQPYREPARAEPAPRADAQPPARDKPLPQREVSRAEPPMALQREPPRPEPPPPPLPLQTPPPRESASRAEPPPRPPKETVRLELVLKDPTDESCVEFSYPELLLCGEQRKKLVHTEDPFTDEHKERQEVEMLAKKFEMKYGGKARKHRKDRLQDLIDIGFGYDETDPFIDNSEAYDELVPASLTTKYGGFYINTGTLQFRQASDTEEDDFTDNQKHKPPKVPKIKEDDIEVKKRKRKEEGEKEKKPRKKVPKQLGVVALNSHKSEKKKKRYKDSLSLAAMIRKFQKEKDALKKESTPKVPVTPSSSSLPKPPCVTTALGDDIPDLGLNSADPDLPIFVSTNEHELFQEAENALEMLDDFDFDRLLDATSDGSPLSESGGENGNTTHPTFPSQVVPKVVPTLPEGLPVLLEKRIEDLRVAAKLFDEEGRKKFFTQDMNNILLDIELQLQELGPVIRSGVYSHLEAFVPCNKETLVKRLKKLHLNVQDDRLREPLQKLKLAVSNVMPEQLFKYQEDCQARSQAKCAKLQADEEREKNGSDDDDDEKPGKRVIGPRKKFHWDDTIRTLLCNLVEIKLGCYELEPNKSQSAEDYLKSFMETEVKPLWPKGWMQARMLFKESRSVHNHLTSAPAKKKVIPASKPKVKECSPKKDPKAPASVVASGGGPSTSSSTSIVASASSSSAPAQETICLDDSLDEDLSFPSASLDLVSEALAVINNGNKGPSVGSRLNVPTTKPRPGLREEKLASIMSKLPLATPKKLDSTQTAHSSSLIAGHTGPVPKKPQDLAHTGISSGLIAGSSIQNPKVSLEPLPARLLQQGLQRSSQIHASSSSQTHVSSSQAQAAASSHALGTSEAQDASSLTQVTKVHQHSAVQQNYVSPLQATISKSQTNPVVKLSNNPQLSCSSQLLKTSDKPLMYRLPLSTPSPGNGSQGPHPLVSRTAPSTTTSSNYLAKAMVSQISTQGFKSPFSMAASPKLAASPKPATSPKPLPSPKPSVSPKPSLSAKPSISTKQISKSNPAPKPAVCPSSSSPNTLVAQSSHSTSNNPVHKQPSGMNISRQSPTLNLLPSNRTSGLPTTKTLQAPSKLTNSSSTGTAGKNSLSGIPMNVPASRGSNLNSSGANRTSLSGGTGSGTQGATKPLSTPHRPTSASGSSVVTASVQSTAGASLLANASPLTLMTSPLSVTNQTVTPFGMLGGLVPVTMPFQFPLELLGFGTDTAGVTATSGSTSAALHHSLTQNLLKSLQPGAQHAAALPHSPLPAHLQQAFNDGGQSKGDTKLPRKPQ
UniProt Q61666, residues 373-1015: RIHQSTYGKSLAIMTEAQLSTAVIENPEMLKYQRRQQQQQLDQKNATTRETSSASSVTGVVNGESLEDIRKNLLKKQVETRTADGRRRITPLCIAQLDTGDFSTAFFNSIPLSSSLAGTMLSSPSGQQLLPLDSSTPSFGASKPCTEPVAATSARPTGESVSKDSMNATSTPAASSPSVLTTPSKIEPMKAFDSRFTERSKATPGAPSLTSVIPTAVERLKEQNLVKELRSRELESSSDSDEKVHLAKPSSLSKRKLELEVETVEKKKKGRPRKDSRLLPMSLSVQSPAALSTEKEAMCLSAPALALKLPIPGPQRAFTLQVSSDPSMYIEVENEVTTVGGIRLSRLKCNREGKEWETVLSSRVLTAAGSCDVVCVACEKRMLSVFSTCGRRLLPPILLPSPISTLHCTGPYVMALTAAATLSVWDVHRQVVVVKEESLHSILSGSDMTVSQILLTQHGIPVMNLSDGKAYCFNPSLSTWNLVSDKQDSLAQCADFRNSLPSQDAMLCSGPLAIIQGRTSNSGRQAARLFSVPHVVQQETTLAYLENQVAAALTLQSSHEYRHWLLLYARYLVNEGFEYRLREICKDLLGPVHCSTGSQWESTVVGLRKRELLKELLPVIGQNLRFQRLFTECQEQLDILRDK

This experiment addresses Ubn2 (full-length mouse Ubn2) (mouse) (UniProt Q80WC1). Put plainly: co-IP; Flag-tag and HA-tag plasmids expressing Ubn2 or Hira transfected into HEK-293T cells; whole cell lysate incubated with Flag-tag magnetic beads; eluate analysed by western blot.

These are yes or no findings as the source states them, for the method shown. Binding seen in cells or lysates may run through a third protein.

Consider “Hira ΔWD40 (truncation of mouse Hira containing amino acids 373-1016) (from UniProt Q61666 373-1015) (domain or fragment)”, for which the binding entry is “no binding”.
